Binding signal data for 42 sequences are collected here from paper PMC7819943, “Rice protein-binding microarrays: a tool to detect cis-acting elements near promoter regions in rice”.

Sequences of proteins named here, by UniProt entry; tags and fusion partners are left off.
UniProt Q0JBA9, entry or part of it: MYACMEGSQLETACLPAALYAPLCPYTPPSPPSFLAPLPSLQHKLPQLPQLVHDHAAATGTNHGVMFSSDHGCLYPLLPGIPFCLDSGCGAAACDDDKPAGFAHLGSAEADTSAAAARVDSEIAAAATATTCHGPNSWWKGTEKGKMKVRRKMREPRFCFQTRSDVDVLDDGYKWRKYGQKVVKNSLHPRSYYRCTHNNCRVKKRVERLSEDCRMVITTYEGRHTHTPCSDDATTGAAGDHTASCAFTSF

This is one part of the list.

This test addresses OsWRKY34 (Oryza sativa, UniProt Q0JBA9 1-250). Description: protein-binding microarray (RPBM); PBS, 2% BSA, 51.3 ng/ul salmon testes DNA, 50 uM zinc acetate, 200 nM TF, 25 C, 1 h; high values mean tight binding. As to conditions: protein: recombinant; tags: N-terminal polyhistidine and DsRed monomer fusion (pET32a); label: CyDye5-dUTP incorporated in the synthesized complementary strand; 3' TTTTT single-stranded linker to array surface; dsDNA, one strand shown. The gist of the method:
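Using Ni–NTA, transcription factors fused N-terminally to polyhistidine and DsRed were purified after expression in E. coli BL21-CodonPlus. These were incubated at 200 nM with a blocked, double-stranded custom Agilent array for 1 h at 25 °C in a buffer containing 50 µM zinc acetate, and the array was washed. The binding signal is per-feature fluorescence intensity (arbitrary units) on an Axon 4000B scanner.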
Regarding “CCTATCCAACTTCTTCACCGCTAGCCGCCGCCCAACCGGCCGGAGTCACCTAGTGCAG”, the binding signal was 8740 fluorescence intensity (a.u.).

Take “GAGGAGGAAGGGAGGGGTTGTCAGCAGCTAGGGTTTTGACCGGAGTCACCTAGTGCAG”: the binding signal was 10300 fluorescence intensity (a.u.).

As for “TGAGGCCATCTTTTGATATCCCTTATCCCTAAAATATTTCCGGAGTCACCTAGTGCAG”, the binding signal was 8470 fluorescence intensity (a.u.).

Consider “GCTCCAGCGCTGTCAAACTTTTTCTCCACCGCTCCAGCCGCGGAGTCACCTAGTGCAG”, for which the binding signal was 9100 fluorescence intensity (a.u.).

Consider “ATGTTTGACTTTTTTTTAAAAAATTTATATTTTTTTAAATCGGAGTCACCTAGTGCAG”, for which the binding signal is 8390 fluorescence intensity (a.u.).

As to “CGTGGCCACTGCTACCTACCTTGCATCTCTTCTGCCTTTTCGGAGTCACCTAGTGCAG”, the binding signal is 9090 fluorescence intensity (a.u.).

As for “GGTTCCATGCCTCGCCGTTTATCTATCTAATTTACTAGCACGGAGTCACCTAGTGCAG”, the binding signal was 9110 fluorescence intensity (a.u.).

For “CTTCAAGAACCGGGTTTATATTCATATACTTTTCTACCAGCGGAGTCACCTAGTGCAG”, the binding signal was 8210 fluorescence intensity (a.u.).

For “TTGGTGTTGGTGTTGTTGTTGATGCTTCTTTGATGAGCGCCGGAGTCACCTAGTGCAG”, the binding signal was 12600 fluorescence intensity (a.u.).

On to “ATAGTCAGGTGAAATAAGGGGCTATTTTTTCTCAGAATCTCGGAGTCACCTAGTGCAG”, for which the binding signal was 8320 fluorescence intensity (a.u.).

On to “TCCAAGTGCTTTCGAGCTCCGATCGCTTTTCCCCTTCATTCGGAGTCACCTAGTGCAG”, for which the binding signal is 8920 fluorescence intensity (a.u.).

Take “GCCCAATCTGATCTACTTCATTCTCTAGTGGCCTAACAATCGGAGTCACCTAGTGCAG”: the binding signal is 11400 fluorescence intensity (a.u.).

In the case of “GCTTCCACGTCTCCCTCCTTATCTGTGACCCACTCCGTCGCGGAGTCACCTAGTGCAG”, the binding signal is 8640 fluorescence intensity (a.u.).

As to “TCTATTCGTCTCCCTTTTCTCTTTTCCGTTTTGGTTTCTACGGAGTCACCTAGTGCAG”, the binding signal was 9420 fluorescence intensity (a.u.).

As for “AATAGCATTCACCAGTTGCAACGCACGGGCATTTATATATCGGAGTCACCTAGTGCAG”, the binding signal was 8140 fluorescence intensity (a.u.).

In the case of “GCCCAATACTAGTCCAACCAAATTGCCCACACTCCACGCACGGAGTCACCTAGTGCAG”, the binding signal was 8260 fluorescence intensity (a.u.).

Regarding “CTTGGTGGCTCAATTATAATCTCTTTTCCCACTGTGTTGCCGGAGTCACCTAGTGCAG”, the binding signal was 10000 fluorescence intensity (a.u.).

In the case of “CTCCGTTTCACAATGTAAGTCATTTTAGTATTTTCCACATCGGAGTCACCTAGTGCAG”, the binding signal is 8500 fluorescence intensity (a.u.).

Regarding “ACTGCCGAGTGAAAACCTAGTCTTAGCTCTCTTTGAGACCCGGAGTCACCTAGTGCAG”, the binding signal was 8170 fluorescence intensity (a.u.).

Turning to “CTCAGTCTCAATCTGTGCACTACTGTTTTTTTTTCAGGTTCGGAGTCACCTAGTGCAG”, the binding signal is 10300 fluorescence intensity (a.u.).

With “CTCCGCCGCGTGCTCTCCGCCTACGGCCTCTTGTATCCCGCGGAGTCACCTAGTGCAG”, the binding signal is 8450 fluorescence intensity (a.u.).

As for “TTACTCAACTCCTAATACTACATGTGATATCATTGAAAAACGGAGTCACCTAGTGCAG”, the binding signal is 8460 fluorescence intensity (a.u.).

Take “CTGTGATGAGTTTGCTGTGTTGTCATCTTCTGTTAGTGGACGGAGTCACCTAGTGCAG”: the binding signal was 11100 fluorescence intensity (a.u.).

For the sequence “TCAAATCGTCCCTCGGACCTACTCGATTTTCGTGGCTTTCCGGAGTCACCTAGTGCAG”, the binding signal is 8520 fluorescence intensity (a.u.).

For “TCCTTGGCCTTTTTCATACTTTTCTTTTTCTTTTTCTTCGCGGAGTCACCTAGTGCAG”, the binding signal was 10600 fluorescence intensity (a.u.).

For “TACGTAACTTTCCATATGCCATCTCTCGACGTTGCACAAACGGAGTCACCTAGTGCAG”, the binding signal is 8850 fluorescence intensity (a.u.).

On to “TCGTATACACTTGCTAGTACATAATTTATTTTTATTTTACCGGAGTCACCTAGTGCAG”, for which the binding signal is 10000 fluorescence intensity (a.u.).

Take “CCAAGGTTGTAATATTATAATTTTTCCTGCTCTATCAATACGGAGTCACCTAGTGCAG”: the binding signal was 8630 fluorescence intensity (a.u.).

For “TTTTTTTGCAAATCACCCCACCCAATTTTACAATTAACGACGGAGTCACCTAGTGCAG”, the binding signal was 9040 fluorescence intensity (a.u.).

Take “ATACCGTGATTGGGATTACCTGTGACCTTGCCTATTTGACCGGAGTCACCTAGTGCAG”: the binding signal is 9120 fluorescence intensity (a.u.).

With “CATGATCGAACACCTGTAACGTTGTTTGTGCTCCGTGGGTCGGAGTCACCTAGTGCAG”, the binding signal was 9300 fluorescence intensity (a.u.).

With “CGTCTCGCCGTCTAGCTTATTAATGTGTACTCAGTCTACACGGAGTCACCTAGTGCAG”, the binding signal was 11200 fluorescence intensity (a.u.).

Take “GGGAGGGCCCACCACCAGCCGCCATTCTCTCCTCGATTTCCGGAGTCACCTAGTGCAG”: the binding signal is 8080 fluorescence intensity (a.u.).

Turning to “ATCACTTTATGCGCACTTTTCTTTGACGCCTTCCACAATTCGGAGTCACCTAGTGCAG”, the binding signal was 9560 fluorescence intensity (a.u.).

Turning to “ACTGTTATTGTTAGATCCACTGCTCGAGTCAAATGTATTACGGAGTCACCTAGTGCAG”, the binding signal is 8610 fluorescence intensity (a.u.).

“ACACTATTATATATACGGCCATCGATCCCAAGTTCCCGAACGGAGTCACCTAGTGCAG”: the binding signal is 8110 fluorescence intensity (a.u.).

For “TAGGGGAAGGCGGGACGTTACATTGGGCGGGCAGTCTATGCGGAGTCACCTAGTGCAG”, the binding signal is 11300 fluorescence intensity (a.u.).

With “AGTGTAGGTCGTCATGACAGGATCCTCTGCCCCTTTTACTCGGAGTCACCTAGTGCAG”, the binding signal is 8260 fluorescence intensity (a.u.).

On to “ATTGACCACAATTTCAGTATATATACTTCTCTCTTGGTTGCGGAGTCACCTAGTGCAG”, for which the binding signal is 8280 fluorescence intensity (a.u.).

As to “GAGAAATTTGTGTGGTTGTATTTTTTTTTGTGTATTTACACGGAGTCACCTAGTGCAG”, the binding signal was 11900 fluorescence intensity (a.u.).

For the sequence “CACTACCAGCCACTCCTACTCTACCTCTATCAACAAGTTCCGGAGTCACCTAGTGCAG”, the binding signal was 9810 fluorescence intensity (a.u.).

Take “CCATGTTCTTATTACGTGGACACGTTGAGTCTGTGAAACTCGGAGTCACCTAGTGCAG”: the binding signal is 8940 fluorescence intensity (a.u.).
